From patent publication US20040161746A1 (published 2004)
These are yes or no findings as the source states them, for the method shown. Some entries that bind do so weakly or less than the wild type. Values belong to the substance of their own block, whether it stands above or below them.

By UniProt entry, the sequences of proteins in these tests, tags left out. Where a name states a change or a piece, a line headed by the entry shows the natural chain unless it says otherwise.
UniProt Q9BZL4: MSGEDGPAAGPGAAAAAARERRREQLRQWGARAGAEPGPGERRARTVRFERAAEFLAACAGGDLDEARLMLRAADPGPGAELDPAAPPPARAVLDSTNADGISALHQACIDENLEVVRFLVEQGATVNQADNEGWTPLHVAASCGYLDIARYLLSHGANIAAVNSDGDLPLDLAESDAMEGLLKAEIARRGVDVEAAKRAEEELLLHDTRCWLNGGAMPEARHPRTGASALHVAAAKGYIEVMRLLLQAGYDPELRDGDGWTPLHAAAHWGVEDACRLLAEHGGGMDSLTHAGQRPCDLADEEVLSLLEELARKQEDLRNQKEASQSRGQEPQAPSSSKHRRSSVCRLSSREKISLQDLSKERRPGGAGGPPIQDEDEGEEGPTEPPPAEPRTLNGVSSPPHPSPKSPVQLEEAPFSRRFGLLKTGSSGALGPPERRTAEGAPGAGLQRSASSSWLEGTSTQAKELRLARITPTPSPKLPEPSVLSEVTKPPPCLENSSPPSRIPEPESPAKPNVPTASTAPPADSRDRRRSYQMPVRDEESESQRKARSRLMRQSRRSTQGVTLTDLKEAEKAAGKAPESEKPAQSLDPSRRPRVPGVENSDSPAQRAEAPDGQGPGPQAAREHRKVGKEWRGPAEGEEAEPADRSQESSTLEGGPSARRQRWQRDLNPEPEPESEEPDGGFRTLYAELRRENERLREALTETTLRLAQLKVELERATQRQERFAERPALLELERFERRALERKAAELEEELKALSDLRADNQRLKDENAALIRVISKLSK
UniProt P35609: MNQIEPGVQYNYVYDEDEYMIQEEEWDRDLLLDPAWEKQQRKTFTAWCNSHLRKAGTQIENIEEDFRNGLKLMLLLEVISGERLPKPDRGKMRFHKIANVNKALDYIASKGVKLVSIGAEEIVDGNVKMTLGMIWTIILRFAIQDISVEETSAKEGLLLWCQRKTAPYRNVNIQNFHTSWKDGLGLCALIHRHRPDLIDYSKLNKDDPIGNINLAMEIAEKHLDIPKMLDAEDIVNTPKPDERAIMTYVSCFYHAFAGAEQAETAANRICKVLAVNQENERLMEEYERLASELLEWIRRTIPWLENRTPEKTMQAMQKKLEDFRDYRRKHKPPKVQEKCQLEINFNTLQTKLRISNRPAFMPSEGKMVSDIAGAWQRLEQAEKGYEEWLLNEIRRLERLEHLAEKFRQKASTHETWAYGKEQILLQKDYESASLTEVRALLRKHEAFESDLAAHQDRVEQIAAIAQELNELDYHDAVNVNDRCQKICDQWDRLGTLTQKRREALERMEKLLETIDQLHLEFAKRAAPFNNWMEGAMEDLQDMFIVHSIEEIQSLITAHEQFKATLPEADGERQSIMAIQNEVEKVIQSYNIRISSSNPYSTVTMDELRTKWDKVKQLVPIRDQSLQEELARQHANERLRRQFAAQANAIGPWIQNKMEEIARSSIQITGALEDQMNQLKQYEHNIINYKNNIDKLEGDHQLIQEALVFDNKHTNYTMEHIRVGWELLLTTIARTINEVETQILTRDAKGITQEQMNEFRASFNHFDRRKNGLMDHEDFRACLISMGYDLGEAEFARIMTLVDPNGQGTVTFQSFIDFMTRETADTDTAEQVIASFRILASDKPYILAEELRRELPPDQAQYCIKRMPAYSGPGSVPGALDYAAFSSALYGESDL

What was measured:
B1153 protein [1] = target: T1, B1153 protein (human, UniProt Q96JG6 1-964); experiment: yeast two-hybrid (PROQUEST, GAL4), B1153 full-length ORF as bait, Human Brain cDNA library prey
T1 construct: also called indicator protein
T1 sequence: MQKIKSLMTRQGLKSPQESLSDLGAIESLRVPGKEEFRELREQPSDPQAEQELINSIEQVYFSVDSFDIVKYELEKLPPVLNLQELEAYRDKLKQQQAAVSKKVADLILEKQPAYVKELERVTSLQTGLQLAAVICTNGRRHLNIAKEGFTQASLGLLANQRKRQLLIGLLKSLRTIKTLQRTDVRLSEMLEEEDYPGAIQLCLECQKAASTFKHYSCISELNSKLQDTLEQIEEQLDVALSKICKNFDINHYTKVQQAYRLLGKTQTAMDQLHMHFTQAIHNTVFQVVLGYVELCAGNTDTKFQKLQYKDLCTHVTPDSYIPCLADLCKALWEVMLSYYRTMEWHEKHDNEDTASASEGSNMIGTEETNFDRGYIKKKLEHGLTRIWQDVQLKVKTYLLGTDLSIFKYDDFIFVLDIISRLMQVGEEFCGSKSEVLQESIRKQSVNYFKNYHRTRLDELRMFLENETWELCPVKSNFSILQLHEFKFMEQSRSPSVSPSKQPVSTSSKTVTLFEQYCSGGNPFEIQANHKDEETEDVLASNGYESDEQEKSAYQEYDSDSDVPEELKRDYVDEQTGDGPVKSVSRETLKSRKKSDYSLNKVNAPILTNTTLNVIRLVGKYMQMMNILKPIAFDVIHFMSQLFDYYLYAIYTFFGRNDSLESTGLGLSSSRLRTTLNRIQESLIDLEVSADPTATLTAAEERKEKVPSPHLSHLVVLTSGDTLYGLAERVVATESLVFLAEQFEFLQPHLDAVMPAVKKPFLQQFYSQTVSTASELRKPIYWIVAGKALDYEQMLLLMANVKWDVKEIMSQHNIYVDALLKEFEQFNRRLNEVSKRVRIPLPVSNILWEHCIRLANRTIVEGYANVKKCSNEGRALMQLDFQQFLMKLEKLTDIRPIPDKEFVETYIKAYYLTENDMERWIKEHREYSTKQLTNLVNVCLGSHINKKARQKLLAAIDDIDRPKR
Experimental: By the PROQUEST™ TWO-Hybrid system (Invitrogen) utilizing the in vivo gene expression system of GAL4 series yeast, a search for a protein that interacts with the protein of this invention was carried out. Screening for a protein that interacts with B1153 was conducted for the Human Brain cDNA library with the full-length ORF region (86 bp to 2977 bp) of the B1153 gene as a bait. In this case, protocol according to the manual attached to the system was used.

B1153 protein [2] = target: T1, B1153 protein; experiment: yeast two-hybrid; only partial prey clones were tested
B1153 protein [3] = target: T1, B1153 protein; experiment: yeast two-hybrid (PROQUEST, GAL4), B1153 full-length ORF as bait
B1153 protein [4] = target: T1, B1153 protein; experiment: yeast two-hybrid; only a partial prey clone was tested

- binding (B1153 protein [1]): binds
Substance: myosin binding subunit 85 partial sequence, Prey-No. 7 (428 aa to 657 aa) (from UniProt Q9BZL4 428-657)

- binding (B1153 protein [2]): binds
Substance: myosin binding subunit 85 (from UniProt Q9BZL4 1-782)

- binding (B1153 protein [3]): binds
- binding (B1153 protein [1]): binds
Substance: skeletal muscle alpha 2 actinin partial sequence, Prey-No. 10 (309 aa to 528 aa) (from UniProt P35609 309-528)

- binding (B1153 protein [4]): binds
Substance: skeletal muscle alpha 2 actinin (from UniProt P35609 1-894)
